Laboratory results taken from EP4311830A1 (King Faisal Specialist Hospital & Research Centre, priority 2022, dated 2024).

Tested on: MDA-MB-231
Assay: Cytotoxicity assay (WST1)
Assay type: cell-based
Details: Breast, MDA-MB-231, WST1
Method: 5,000 cells/well were seeded in 96-well plates with appropriate culture media. After cells treatment, WST-1 reagent (Sigma-Aldrich) was added to each well according to the manufacturer's instructions. These experiments were performed in triplicates and were repeated several times.

**Q.** With N.N.[Cl][Pt][Cl] [Cisplatin, (SP-4-2)-diamminedichloridoplatinum(II)] as the compound, how does the IC50 read?
**A.** 22.8 ± 2.13 µM
